Measurements reported in PubChem BioAssay AID602196 (INSERM, 2012)
Assay: 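Modifiers of cisplatin sensitivity in A549 cells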. Cell system: human A549 lung cancer cells. Reagent: siRNA pair against human genes. Duration: 48 h transfection before cisplatin; time from cisplatin to read-out not stated. Challenge: cisplatin at a dose killing half of control-siRNA cells; exact dose and duration not given. Measured: 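Cisplatin cell death as a shift from the 50% death seen with control siRNA; siRNAs toxic or growth-blocking alone scored 0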. Direction: two-siRNA summed score (-2 to +2): higher = both siRNAs protect from cisplatin killing; -2 means both sensitise; mean protection from cisplatin (shift in death) and protection from cisplatin (shift in death), siRNA C and protection from cisplatin (shift in death), siRNA D: higher = protection from cisplatin killing. Active means: 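siRNAs harmful alone (LDH or WST-1) get 0; others get +1 for less and -1 for more cisplatin killing; genes are active when the two siRNAs give the same sign, summing to ±2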. Calls: active = both siRNAs shift cisplatin killing the same way; inactive = no consistent shift, or siRNA harmful alone.
The deposit covers about 23,000 reagents; shown is a random part of them. 455 of them (2%) count as active. 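Active includes both protection and sensitisation; some change values fall well beyond the stated -50 to +50 range.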 Not given: the amount of reagent.

| two-siRNA summed score (-2 to +2) | mean protection from cisplatin (shift in death) (%) | protection from cisplatin (shift in death), siRNA C (%) | protection from cisplatin (shift in death), siRNA D (%) | activity call | gene |
| --- | --- | --- | --- | --- | --- |
| 0 | 2.8 | -1.5 | 7 | inactive | H3-4 |
| 0 | -9.1 | -19 | 0.8 | inactive | LOC400781 |
| 0 | -1.5 | -1.4 | -1.6 | inactive | TSPEAR-AS2 |
| 1 | 12.1 | 19.6 | 4.5 | inactive | DGAT2-DT |
| 0 | -25.2 | -10.9 | -39.5 | inactive | LAMP2 |
| 0 | 1.8 | -8.3 | 11.8 | inactive | C16orf54 |
| 0 | -0.7 | -3.6 | 2.1 | inactive | HOOK3 |
| 0 | -4.5 | -10 | 1.1 | inactive | OPALIN |
| 0 | -3.5 | 3.9 | -11 | inactive | TTC14 |
| 0 | 1.7 | -4.8 | 8.1 | inactive | IL36R |

Next part (3 carried over from the part before).
| two-siRNA summed score (-2 to +2) | mean protection from cisplatin (shift in death) (%) | protection from cisplatin (shift in death), siRNA C (%) | protection from cisplatin (shift in death), siRNA D (%) | activity call | gene |
| --- | --- | --- | --- | --- | --- |
| 0 | -4.5 | -10 | 1.1 | inactive | OPALIN |
| 0 | -3.5 | 3.9 | -11 | inactive | TTC14 |
| 0 | 1.7 | -4.8 | 8.1 | inactive | IL36R |
| 0 | -4.6 | -10.2 | 1 | inactive | LOC400163 |
| 0 | 13.1 | -8.7 | 34.9 | inactive | ABCC2 |
| -1 | -3.6 | -12.9 | 5.7 | inactive | ATP2B1 |
| 1 | 14.2 | 4.3 | 24 | inactive | LOC391123 |
| -1 | -3.8 | 9.7 | -17.2 | inactive | INSL4 |
| 0 | 7.4 | 0.2 | 14.6 | inactive | DHX57 |
| 0 | -2.7 | -0.2 | -5.3 | inactive | LOC122038 |
| 1 | 21.1 | 21.9 | 20.3 | inactive | LOC440786 |
| 0 | 16.8 | 14.1 | 19.5 | inactive | SLCO6A1 |
| 0 | -3.1 | 5.4 | -11.6 | inactive | PTBP2 |
| 0 | -2.2 | 2.5 | -7 | inactive | ANKRD36B |
| 0 | 10.9 | 18.9 | 2.9 | inactive | DAB1 |
| 0 | 10 | 15 | 4.9 | inactive | PGBD2 |
